Test results taken from US5416073A (The Adminstrators of the Tulane Educational Fund, priority 1985, dated 1995).
Some peptides are written in HELM: one residue between dots, names in brackets for other building blocks, links after the first $.

Assay: general procedure: Boc solid-phase peptide synthesis; Benzhydrylamine polystyrene resin (Bachem)
Details: whole synthesis

Q: Which isolated mass (scale 0.25 mmol, run 1) does the source give for “PEPTIDE1{Y.A.D.A.I.F.T.N.S.[dY].R.K.V.L.G.Q.L.S.A.R.K.L.L.Q.D.I.M.S.R.[am]}$$$$V2.0” here?
A: 32 mg

Q: And the isolated mass (scale 0.25 mmol, run 2)?
A: 75 mg

Q: Which isolated mass (scale 0.25 mmole) does the source give for “PEPTIDE1{H.[dA].D.A.I.F.T.N.S.Y.R.K.V.L.G.Q.L.S.A.R.K.L.L.Q.D.I.[Nle].S.R.[am]}$$$$V2.0” here?
A: 23 mg

Q: For “PEPTIDE1{Y.[dA].[dD].A.I.F.T.[dN].S.Y.R.K.V.L.G.Q.L.S.A.R.K.L.L.Q.D.I.[Nle].S.R.[am]}$$$$V2.0”, which isolated mass (scale 0.25 mmole) is on record?
A: 67 mg

Q: With “PEPTIDE1{Y.A.[dD].A.I.F.T.[dN].S.Y.R.K.V.L.G.Q.L.S.A.R.K.L.L.Q.D.I.[Nle].S.R.[am]}$$$$V2.0” as the substance, how does the isolated mass (scale 0.25 mmole) read?
A: 114 mg

Q: With “PEPTIDE1{Y.[dA].D.A.I.F.T.[dN].S.Y.R.K.V.L.G.Q.L.S.A.R.K.L.L.Q.D.I.[Nle].S.R.[am]}$$$$V2.0” as the substance, how does the isolated mass (scale 0.25 mmole) read?
A: 41 mg

Q: Which isolated mass (scale 0.25 mmole) does the source give for “PEPTIDE1{Y.[dA].D.A.I.F.T.N.S.Y.R.K.V.L.G.Q.L.S.A.R.K.L.L.Q.D.I.[Nle].S.R.[am]}$$$$V2.0” here?
A: 71 mg
